Laboratory results reported in article PMC4557334.
Results are given in words; binding and its absence hold for the method and conditions named. Binding seen in cells or lysates may run through a third protein. Some entries that bind do so weakly or less than the wild type.

By UniProt entry, the sequences of proteins in these tests, tags left out.
UniProt Q9Y4B6: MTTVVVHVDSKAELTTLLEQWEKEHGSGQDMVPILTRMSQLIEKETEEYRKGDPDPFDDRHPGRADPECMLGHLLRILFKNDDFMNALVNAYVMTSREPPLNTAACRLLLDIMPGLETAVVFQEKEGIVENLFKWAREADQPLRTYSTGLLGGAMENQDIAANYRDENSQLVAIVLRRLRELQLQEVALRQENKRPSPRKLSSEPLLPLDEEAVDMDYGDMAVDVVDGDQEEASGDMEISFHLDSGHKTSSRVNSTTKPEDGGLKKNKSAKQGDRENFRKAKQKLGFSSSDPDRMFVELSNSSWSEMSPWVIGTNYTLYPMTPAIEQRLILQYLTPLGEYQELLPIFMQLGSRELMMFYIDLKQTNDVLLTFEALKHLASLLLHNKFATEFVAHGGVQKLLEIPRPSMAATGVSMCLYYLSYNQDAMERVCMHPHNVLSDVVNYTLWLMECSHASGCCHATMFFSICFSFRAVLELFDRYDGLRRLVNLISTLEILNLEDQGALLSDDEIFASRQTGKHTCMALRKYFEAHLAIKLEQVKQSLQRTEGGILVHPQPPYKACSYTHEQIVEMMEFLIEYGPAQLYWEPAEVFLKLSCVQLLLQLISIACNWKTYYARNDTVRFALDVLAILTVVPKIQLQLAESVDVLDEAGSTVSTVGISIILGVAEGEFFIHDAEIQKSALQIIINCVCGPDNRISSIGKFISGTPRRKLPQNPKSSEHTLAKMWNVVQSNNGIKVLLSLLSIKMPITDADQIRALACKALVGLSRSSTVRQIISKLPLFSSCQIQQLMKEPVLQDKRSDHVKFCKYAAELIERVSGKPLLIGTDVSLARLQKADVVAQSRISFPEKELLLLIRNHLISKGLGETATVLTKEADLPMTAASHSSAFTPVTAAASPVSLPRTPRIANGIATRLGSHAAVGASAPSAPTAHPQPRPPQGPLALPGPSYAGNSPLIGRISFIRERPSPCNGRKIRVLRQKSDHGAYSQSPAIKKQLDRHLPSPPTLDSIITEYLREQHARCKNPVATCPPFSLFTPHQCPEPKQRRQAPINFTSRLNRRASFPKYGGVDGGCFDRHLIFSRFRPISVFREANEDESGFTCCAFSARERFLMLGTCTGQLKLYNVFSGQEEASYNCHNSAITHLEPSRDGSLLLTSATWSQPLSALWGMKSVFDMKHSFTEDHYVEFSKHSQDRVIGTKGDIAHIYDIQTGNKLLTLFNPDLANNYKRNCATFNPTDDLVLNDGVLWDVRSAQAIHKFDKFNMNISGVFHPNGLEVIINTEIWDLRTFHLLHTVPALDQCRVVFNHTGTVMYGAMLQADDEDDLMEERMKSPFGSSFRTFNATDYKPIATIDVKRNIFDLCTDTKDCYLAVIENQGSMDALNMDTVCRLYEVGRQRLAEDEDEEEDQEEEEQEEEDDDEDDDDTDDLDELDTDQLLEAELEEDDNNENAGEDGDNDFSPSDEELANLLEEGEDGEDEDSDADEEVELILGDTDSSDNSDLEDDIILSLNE
UniProt P30153: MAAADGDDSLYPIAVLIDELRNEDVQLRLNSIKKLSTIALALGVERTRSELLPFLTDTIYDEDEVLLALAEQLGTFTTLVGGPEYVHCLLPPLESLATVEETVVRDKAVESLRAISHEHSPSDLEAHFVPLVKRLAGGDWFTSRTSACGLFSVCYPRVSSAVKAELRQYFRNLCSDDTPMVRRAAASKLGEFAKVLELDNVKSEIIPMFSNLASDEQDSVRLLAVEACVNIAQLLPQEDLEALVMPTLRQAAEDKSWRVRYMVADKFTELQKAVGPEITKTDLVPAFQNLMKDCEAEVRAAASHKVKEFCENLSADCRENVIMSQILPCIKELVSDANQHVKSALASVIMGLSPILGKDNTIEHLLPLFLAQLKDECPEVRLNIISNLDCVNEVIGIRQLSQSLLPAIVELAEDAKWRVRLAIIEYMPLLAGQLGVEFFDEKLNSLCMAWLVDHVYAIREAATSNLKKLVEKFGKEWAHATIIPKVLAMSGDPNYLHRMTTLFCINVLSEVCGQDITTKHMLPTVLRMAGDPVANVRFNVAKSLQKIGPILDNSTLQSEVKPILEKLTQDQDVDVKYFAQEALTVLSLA
UniProt P30154: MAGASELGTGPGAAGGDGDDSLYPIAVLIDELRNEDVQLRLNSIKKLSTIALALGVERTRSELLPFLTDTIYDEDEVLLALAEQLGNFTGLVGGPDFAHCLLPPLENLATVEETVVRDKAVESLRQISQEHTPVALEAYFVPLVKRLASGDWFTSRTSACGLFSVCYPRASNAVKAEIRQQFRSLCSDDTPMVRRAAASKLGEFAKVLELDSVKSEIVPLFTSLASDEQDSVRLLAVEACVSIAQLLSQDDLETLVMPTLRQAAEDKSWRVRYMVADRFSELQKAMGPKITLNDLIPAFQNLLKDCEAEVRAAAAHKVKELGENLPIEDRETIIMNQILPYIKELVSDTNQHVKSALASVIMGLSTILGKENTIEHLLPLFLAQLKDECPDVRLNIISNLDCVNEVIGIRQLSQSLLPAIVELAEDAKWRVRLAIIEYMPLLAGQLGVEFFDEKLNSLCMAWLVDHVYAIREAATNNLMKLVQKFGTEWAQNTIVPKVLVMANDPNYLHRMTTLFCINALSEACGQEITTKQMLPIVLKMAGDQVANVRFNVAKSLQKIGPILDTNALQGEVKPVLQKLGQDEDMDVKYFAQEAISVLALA

Key:
[1] = target: DCAF1 (Supplementary Fig. 7c) (UniProt Q9Y4B6); assay: pull-down; PPP2R1A binding with different DCAF1 fragments (Supplementary Fig. 7c); DCAF1 or fragment pulled down, PPP2R1A detected
FLAG-PPP2R1A = FLAG-PPP2R1A (UniProt P30153); assay: co-IP; HeLa cells co-transfected with MYC-DCAF1 and FLAG-PPP2R1A/B for 48 h; immunoprecipitation with anti-FLAG agarose beads, 4 °C 4 h, lysis buffer 50 mM Tris-HCl pH 7.5, 150 mM NaCl, 10% glycerol, 0.5% NP-40; western blot
FLAG-PPP2R1B = FLAG-PPP2R1B (UniProt P30154); assay: as above

Substance | binding [1] | binding (FLAG-PPP2R1A) | binding (FLAG-PPP2R1B)
PPP2R1A (Supplementary Fig. 7c) (from UniProt P30153 1-589) | binds |  | 
MYC-DCAF1 (from UniProt Q9Y4B6 1-1507) |  | binds | binds
